Among the data in US20090186376A1 are binding values, retold here.

Chains of the proteins cited; added tags and fusions are not shown. Lines headed by an entry give the natural chain unless they say otherwise; changes in a name come on top.
UniProt P35918: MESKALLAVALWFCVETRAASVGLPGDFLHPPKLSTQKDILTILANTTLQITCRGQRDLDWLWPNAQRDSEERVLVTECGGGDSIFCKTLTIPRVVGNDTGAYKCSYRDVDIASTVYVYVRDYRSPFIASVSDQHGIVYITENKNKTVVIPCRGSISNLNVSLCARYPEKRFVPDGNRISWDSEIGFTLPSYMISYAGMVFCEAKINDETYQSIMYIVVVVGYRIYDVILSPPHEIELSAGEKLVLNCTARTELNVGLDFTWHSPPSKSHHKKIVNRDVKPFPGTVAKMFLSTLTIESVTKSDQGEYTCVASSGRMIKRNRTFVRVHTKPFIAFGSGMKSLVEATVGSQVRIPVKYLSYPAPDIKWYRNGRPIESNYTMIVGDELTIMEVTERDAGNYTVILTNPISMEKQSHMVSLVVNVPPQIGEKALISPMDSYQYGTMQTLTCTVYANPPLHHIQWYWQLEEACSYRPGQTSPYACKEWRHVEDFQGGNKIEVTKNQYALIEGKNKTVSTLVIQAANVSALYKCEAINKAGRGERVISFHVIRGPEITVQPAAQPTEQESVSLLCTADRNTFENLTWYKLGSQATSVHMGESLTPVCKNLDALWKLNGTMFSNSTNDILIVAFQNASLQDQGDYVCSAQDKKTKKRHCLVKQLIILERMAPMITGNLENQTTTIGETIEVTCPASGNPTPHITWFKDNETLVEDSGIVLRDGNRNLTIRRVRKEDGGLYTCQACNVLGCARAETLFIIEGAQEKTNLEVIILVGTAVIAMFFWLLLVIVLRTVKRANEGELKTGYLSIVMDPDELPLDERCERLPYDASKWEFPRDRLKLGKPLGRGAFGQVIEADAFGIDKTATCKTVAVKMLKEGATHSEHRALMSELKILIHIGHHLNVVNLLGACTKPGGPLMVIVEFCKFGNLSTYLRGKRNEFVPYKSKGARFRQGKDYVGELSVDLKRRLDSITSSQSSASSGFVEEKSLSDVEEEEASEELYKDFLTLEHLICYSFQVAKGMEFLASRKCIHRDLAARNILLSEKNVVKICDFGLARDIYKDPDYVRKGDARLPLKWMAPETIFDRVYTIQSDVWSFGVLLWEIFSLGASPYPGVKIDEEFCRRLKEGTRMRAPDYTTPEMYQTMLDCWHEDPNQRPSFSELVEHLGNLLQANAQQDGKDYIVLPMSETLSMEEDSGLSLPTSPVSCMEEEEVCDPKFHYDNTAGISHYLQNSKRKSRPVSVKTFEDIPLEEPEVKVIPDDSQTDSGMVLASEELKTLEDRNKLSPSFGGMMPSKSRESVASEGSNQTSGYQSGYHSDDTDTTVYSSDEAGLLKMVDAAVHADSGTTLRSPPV

Results are given in words; binding and its absence hold for the method and conditions named. In cells and extracts the contact can be indirect. Some entries that bind do so weakly or less than the wild type.

This test concerns the target T1, mouse VEGF-C (mouse) (UniProt P97953).
T1 sequence (looked up): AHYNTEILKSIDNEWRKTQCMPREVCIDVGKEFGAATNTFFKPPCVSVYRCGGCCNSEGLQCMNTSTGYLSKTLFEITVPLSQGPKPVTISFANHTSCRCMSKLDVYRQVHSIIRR
Nature of the test: co-immunoprecipitation of recombinant mouse sVEGFR-2 and mouse VEGF-C with an anti-VEGFR-2 antibody, then western blot. In general terms: Immunoblotting shows a protein as a band on a membrane.

“mouse soluble vascular endothelial growth factor receptor 2 (sVEGFR-2) (from UniProt P35918 20-660)”: the binding entry was “binds”.
